At least one compound was matched to its structure with a doubt left.
Key:
Format in all cases: in vivo
[1] = tested on: hepatocytes and cholangiocytes; assay: Immunohistochemistry for proliferation marker Ki-67; details: Mdr2−/− mice fed 0.5% w/w for 4 weeks; FIG. 5
Description: (§1) Two months-old Mdr2^−/− (a time point when sclerosing cholangitis is already fully established in these animals (Fickert, Zollner, et al. 2002) were either fed a diet supplemented with norUDCA (0.5%, w/w) or UDCA as a clinical comparator (0.5%, w/w) for 4 weeks and compared to standard-diet-fed Mdr2^−/− and wild type controls.
Immunohistochemistry for Ki-67 was performed on microwave-treated ([…] citrate buffer pH 6.0) paraffin sections (4 μm thick) using a polyclonal rabbit anti-Ki-67 antibody (dilution 1:750, Novocastra, Newcastle upon Tyne, UK). Binding of the antibody was detected using the ABC system (Dako) using AEC (Dako) as substrate. Number of proliferating hepatocytes was calculated by counting positive nuclei in 30 high power fields in sections of 3 animals in each group. Number of proliferating bile duct epithelial cells was calculated by counting positive nuclei in 20 portal fields in sections of 3 animals in each group.

Mdr2−/− mice [2] = assay: Liver histology (H&E, Sirius red) in bile acid-fed Mdr2−/− mice; details: Mdr2−/− mice fed 0.5% w/w for 4 weeks
Source text: as §1
For conventional light microscopy, livers were fixed in 4% neutral buffered formaldehyde solution and embedded in paraffin. Sections (4 μm thick) were stained with H&E and Sirius red stain, respectively. The sections were coded and examined by a pathologist (H. D.) unaware of the animals' treatment.

VCAM = assay: Immunohistochemistry for vascular cell adhesion molecule (VCAM); details: interlobular and lobular bile ducts, Mdr2−/− mice fed 0.5% w/w for 4 weeks; FIG. 4
Description: as §1
Immunohistochemistry for VCAM was performed on acetone fixed cryosections using the monoclonal rat anti CD106 (VCAM-1, dilution 1:30, PharMingen, San Diego, Calif., USA) and binding of the antibody was detected using the ABC system (Dako) using AEC (Dako) as substrate.

[3] = tested on: portal neutrophils (CD11b-positive cells); assay: Immunohistochemistry for neutrophils marker CD-11b; details: Mdr2−/− mice fed 0.5% w/w for 4 weeks, vs standard diet-fed KO; FIG. 3
Source text: as §1
To quantify neutrophils CD 11b-positive cells were detected as described previously (Fickert, Fuchsbichler, et al. 2004) with the modification that binding of the antibody was detected using the ABC system (Dako) using AEC (Dako) as substrate. Number of neutrophils was calculated by counting positive cells in 20 portal fields in sections of 3 animals in each group.

Mdr2−/− mice [4] = assay: Hepatic hydroxyproline content; details: Mdr2−/− mice fed 0.5% w/w for 4 weeks, vs control diet-fed KO; FIG. 2
Description: as §1
To quantify liver fibrosis in our model hepatic hydroxyproline content was determined. The right liver lobe was homogenized in 6-normal HCl (200 mg liver tissue/4 ml HCl) and hydrolyzed at 110° C. for 16 h. After filtration 50 μl were added to 450 μl 2.2% NaOH dissolved in citrate-acetate buffer (50 g citric acid×H2O, 12 ml acidic acid, 120 g sodium acetate×3H2O, 34 g NaOH ad 1 liter distilled water; pH 6.0). After adding 250 μl perchloric acid and 12 min incubation at room temperature 250 μl p-dimethylaminobenzaldehyde solution was added and incubated at 60° C. for 20 min. Hydroxyproline content was measured at 565 nm using a hydroxyproline standard curve.

Question: With `C[C@H](CCC(=O)O)[C@H]1CC[C@H]2[C@@H]3[C@@H](O)C[C@@H]4C[C@H](O)CC[C@]4(C)[C@H]3CC[C@]12C` [UDCA, Ursodeoxycholic acid] as the compound, how does the “Proliferation of bile duct epithelial cells / cholangiocytes (Ki-67 positive)” value [1] read?
Answer: reduced proliferation of bile duct epithelial cells in large bile ducts

Question: And the “Proliferation of hepatocytes (Ki-67 positive)” value [1]?
Answer: no significant effects

Question: And the Small duct disease (Mdr2−/− mice [2])?
Answer: did not improve

Question: What about the “Large bile duct disease (H&E staining)” value (Mdr2−/− mice [2]; vs control diet-fed KO, FIG. 1A) of the same compound?
Answer: significantly reduced

Question: What about the “Fibrosis with periductal collagen fibers (Sirius red staining)” value (Mdr2−/− mice [2]; vs control diet-fed KO, FIG. 1C) of the same compound?
Answer: Moderate reduction of fibrosis

Question: What about the “VCAM expression in bile duct epithelial cells” value (VCAM) of the same compound?
Answer: no significant effects

Question: And the “Number of portal neutrophils (CD11b-positive cells per 20 portal fields) / portal inflammation” value [3]?
Answer: no significant effects

Question: And the Hepatic hydroxyproline content (Mdr2−/− mice [4])?
Answer: only a trend for lower hepatic hydroxyproline content without reaching statistical significance
